The other results are listed elsewhere or left out.
Columns and labels:
Experiment in all cases: log2 fold change, soluble protein after heating vs DMSO (PISA); higher = thermal stabilisation; K562 lysate, 10 uM; active = over 0.2 and 3.5 SD of the protein, either way, in both replicates (recomputed)
erlotinib = compound: C#Cc1cccc(Nc2ncnc3cc(OCCOC)c(OCCOC)cc23)c1 [erlotinib]
How it was run: (§1)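 Log-two fold change in thermal stability relative to solvent controls is reported from duplicates. For each sample, crude K562 extract from dounce-homogenised pellets in PBS pH 7.4 with 1 mM MgCl2, at 1 mg/mL protein, was treated with 10 μM compound for 30 min. Aliquots heated for 3 min across 48°C-58°C were pooled, brought to 0.5% NP-40 at 4°C and cleared at 21,000xg for 90 min. The supernatant was quantified by TMTpro 16plex LC-MS/MS with channel sums equalised.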

By UniProt entry, the sequences of proteins in these tests, tags left out. Where a name states a change or a piece, a line headed by the entry shows the natural chain unless it says otherwise.
UniProt Q6ZMI0: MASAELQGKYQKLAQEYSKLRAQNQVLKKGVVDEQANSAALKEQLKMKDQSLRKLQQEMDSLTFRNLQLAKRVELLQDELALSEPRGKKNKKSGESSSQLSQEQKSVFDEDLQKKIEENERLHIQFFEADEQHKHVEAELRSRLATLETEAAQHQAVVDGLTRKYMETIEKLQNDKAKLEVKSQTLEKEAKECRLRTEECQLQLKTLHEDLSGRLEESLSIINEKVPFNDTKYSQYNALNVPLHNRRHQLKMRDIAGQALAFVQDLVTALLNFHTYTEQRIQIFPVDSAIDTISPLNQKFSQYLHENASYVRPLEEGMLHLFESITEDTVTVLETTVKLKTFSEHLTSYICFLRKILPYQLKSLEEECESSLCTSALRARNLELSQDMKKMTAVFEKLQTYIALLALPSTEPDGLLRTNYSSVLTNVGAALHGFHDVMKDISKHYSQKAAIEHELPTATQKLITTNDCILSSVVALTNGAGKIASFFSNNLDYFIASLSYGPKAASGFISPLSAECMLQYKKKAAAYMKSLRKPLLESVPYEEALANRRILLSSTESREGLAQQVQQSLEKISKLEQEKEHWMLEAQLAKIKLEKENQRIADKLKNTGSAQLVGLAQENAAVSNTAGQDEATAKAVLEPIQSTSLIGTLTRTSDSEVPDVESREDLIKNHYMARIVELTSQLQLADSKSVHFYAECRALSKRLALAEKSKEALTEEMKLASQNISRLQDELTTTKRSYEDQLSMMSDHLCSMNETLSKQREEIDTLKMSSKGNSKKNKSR
UniProt Q99633: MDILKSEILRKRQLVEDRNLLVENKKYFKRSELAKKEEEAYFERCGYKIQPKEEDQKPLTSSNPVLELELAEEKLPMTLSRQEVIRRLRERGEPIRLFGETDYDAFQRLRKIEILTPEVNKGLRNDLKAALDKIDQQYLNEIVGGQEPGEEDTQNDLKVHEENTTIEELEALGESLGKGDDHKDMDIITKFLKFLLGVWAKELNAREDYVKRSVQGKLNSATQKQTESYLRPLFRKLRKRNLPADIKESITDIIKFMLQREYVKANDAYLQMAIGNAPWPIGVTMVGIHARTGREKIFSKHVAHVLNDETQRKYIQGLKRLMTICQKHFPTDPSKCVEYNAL
UniProt Q9H2H8: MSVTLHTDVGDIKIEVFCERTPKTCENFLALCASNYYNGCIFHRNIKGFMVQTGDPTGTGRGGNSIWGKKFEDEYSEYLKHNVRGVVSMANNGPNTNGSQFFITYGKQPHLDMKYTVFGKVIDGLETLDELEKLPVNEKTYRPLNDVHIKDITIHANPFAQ
UniProt P62136, whole entry, looked up: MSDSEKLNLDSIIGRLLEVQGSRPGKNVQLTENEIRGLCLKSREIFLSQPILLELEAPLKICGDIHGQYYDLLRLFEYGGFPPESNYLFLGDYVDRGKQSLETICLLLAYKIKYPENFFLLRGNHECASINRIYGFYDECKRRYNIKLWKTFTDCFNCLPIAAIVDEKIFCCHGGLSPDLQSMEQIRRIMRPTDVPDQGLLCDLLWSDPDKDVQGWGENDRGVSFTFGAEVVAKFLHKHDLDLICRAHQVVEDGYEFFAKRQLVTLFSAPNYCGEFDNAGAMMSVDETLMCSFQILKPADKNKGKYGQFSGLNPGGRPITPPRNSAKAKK
UniProt P10644, whole entry, looked up: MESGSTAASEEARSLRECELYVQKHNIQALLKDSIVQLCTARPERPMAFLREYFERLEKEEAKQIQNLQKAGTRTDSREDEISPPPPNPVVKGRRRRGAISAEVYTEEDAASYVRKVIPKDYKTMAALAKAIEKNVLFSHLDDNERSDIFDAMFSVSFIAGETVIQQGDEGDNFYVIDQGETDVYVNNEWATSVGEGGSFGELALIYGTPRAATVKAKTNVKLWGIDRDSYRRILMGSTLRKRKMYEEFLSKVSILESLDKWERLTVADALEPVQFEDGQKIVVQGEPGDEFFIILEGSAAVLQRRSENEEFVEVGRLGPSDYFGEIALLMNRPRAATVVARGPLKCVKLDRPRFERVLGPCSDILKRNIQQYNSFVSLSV
UniProt Q9UMR5: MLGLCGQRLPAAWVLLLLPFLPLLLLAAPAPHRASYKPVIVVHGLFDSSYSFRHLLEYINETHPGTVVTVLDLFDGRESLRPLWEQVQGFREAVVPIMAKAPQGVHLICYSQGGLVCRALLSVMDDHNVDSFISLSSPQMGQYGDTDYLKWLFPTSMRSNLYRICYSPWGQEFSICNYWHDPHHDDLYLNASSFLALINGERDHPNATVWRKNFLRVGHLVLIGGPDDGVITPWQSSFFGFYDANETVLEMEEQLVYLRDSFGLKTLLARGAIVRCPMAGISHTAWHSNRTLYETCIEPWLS
UniProt O14744, whole entry, looked up: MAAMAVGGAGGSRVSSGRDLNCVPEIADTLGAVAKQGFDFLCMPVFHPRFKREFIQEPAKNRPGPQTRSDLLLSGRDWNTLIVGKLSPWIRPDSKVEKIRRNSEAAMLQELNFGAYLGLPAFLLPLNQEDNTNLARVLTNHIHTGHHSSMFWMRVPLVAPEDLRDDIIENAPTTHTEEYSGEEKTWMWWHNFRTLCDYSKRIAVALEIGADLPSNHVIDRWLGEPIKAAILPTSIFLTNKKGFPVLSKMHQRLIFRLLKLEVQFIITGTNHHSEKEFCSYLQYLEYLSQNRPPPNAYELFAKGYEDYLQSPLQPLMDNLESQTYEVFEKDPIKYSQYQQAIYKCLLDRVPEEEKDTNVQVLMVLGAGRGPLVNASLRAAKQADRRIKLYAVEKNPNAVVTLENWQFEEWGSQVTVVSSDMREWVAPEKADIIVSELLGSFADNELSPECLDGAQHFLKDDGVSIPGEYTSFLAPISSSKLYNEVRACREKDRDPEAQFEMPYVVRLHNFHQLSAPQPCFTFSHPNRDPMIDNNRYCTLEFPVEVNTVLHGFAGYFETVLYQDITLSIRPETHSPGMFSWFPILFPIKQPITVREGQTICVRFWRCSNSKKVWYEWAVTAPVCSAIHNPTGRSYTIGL
UniProt Q6NYC8: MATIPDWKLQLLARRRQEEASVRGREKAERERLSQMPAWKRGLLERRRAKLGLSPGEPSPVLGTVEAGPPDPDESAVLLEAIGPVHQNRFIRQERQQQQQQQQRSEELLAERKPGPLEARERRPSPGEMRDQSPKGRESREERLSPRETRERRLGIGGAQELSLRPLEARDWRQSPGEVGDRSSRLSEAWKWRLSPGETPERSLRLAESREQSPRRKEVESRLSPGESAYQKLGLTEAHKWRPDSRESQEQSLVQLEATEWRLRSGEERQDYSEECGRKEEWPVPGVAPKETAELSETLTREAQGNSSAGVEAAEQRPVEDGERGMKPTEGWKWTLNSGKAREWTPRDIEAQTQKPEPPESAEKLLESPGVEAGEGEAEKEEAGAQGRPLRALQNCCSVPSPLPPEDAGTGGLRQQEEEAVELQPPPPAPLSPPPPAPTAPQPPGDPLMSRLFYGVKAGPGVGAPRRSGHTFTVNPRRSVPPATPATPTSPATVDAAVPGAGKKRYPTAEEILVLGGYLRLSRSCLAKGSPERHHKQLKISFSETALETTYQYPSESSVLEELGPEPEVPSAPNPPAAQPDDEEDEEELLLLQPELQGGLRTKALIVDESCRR
UniProt P50336: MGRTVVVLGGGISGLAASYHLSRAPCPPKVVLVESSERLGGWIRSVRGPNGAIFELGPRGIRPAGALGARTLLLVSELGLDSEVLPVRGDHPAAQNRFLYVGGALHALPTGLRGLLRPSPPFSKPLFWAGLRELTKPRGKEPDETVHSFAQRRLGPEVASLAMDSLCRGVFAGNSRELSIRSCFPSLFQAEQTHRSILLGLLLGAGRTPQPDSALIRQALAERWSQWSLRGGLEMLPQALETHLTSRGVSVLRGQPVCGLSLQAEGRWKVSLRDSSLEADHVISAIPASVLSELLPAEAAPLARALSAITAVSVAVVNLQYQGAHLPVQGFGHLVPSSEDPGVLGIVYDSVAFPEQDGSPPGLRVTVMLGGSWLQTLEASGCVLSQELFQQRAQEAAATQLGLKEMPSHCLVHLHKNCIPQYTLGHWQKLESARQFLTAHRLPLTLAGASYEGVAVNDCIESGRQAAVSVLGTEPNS
UniProt P30154, whole entry, looked up: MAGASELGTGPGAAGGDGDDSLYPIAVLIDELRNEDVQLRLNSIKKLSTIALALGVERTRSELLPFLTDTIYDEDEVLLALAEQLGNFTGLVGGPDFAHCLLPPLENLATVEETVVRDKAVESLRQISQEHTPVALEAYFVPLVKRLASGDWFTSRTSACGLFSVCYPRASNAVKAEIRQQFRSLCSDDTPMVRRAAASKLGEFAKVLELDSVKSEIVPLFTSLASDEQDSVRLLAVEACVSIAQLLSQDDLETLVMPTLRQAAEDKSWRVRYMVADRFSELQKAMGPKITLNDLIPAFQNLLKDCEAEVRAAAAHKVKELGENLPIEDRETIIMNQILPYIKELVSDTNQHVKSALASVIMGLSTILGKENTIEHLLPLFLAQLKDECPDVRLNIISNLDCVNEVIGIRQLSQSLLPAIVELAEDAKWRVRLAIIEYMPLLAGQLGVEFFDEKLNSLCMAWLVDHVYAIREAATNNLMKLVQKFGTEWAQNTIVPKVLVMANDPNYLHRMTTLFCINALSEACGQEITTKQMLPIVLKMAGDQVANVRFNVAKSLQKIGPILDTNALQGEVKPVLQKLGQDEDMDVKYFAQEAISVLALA
UniProt Q5H9R7: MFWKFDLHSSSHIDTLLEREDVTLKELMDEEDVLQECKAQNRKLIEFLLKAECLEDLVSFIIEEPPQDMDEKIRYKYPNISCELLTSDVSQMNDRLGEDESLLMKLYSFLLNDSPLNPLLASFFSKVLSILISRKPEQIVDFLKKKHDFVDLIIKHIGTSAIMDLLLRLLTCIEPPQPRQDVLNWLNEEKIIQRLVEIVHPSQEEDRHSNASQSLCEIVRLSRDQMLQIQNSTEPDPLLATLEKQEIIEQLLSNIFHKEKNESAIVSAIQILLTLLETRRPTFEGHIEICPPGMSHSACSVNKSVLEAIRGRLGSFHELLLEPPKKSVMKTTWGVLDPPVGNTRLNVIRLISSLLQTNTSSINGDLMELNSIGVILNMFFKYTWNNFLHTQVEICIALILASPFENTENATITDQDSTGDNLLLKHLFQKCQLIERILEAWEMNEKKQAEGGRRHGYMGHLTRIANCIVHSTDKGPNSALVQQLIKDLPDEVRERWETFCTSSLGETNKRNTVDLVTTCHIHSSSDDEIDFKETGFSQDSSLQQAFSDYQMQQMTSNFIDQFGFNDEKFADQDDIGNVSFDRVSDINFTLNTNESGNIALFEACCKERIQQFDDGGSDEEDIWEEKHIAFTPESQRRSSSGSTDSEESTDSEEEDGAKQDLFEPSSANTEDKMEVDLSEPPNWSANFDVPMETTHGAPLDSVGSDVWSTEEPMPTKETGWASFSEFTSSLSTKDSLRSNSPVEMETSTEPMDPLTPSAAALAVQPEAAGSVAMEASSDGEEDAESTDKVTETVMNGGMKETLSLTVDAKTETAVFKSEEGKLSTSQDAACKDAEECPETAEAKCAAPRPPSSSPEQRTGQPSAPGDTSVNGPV
UniProt Q9Y570: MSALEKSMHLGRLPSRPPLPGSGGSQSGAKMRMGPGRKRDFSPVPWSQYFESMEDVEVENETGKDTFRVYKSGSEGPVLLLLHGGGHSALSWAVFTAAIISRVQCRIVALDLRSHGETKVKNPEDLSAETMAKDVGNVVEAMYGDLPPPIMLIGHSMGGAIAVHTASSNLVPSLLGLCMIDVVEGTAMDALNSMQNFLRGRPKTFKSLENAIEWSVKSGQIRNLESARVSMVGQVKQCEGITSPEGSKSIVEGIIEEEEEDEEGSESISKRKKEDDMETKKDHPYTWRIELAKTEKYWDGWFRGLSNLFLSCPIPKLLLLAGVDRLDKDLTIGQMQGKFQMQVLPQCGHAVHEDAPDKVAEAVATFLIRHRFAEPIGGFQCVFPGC

[1] = compound: C/C(=N\NC(=O)C1=CC(=CC=C1)S(=O)(=O)N2CCOCC2)/C3=C(C=CC(=C3)Cl)O
How it was run: as §1

[2] = compound: C1=CC(=CC=C1C2=NC3=C(N2)C=C(C=C3)C(=O)N)OC4=CC=C(C=C4)Cl
How it was run: as §1

[3] = compound: C1=CC2=C(C=CC(=C2)/C=C\3/C(=O)NC(=NCC4=CC=CS4)S3)N=C1
How it was run: as §1

[4] = compound: C1=CC2=NC=CN=C2C=C1/C=C/3\C(=O)NC(=O)S3
How it was run: as §1

[5] = compound: C1=CC=C(C=C1)C2=NC(=C(N2)C3=CC=NC=C3)C4=CC(=C(C=C4)Cl)O
How it was run: as §1

[6] = compound: C1=CC=C2C(=C1)C3=NNC4=CC=CC(=C43)C2=O
How it was run: as §1

[7] = compound: C1CCN(C1)C(=O)NC2=CC=CC(=C2)NC3=NC=C(C(=N3)NCCC4=CN=CN4)Br
How it was run: as §1

[8] = compound: C1CN(CCC1(CC2=CC=C(C=C2)Cl)N)C3=NC=NC4=C3C=CN4
How it was run: as §1

IRAK-1-4 Inhibitor I = compound: C1COCCN1CCN2C3=CC=CC=C3N=C2NC(=O)C4=CC(=CC=C4)[N+](=O)[O-] [IRAK-1-4 Inhibitor I]
How it was run: as §1

ibrutinib = compound: C=CC(=O)N1CCC[C@@H](n2nc(-c3ccc(Oc4ccccc4)cc3)c3c(N)ncnc32)C1 [ibrutinib]
How it was run: as §1

[9] = compound: CC(=O)c1cnc2ccc(-c3cc(Cl)c(O)c(Cl)c3)nc2c1N[C@H]1CC[C@H](CN(C)C)CC1
How it was run: as §1

ralimetinib = compound: CC(C)(C)Cn1c(N)nc2ccc(-c3[nH]c(C(C)(C)C)nc3-c3ccc(F)cc3)nc21 [ralimetinib]
How it was run: as §1

[10] = compound: CC(C)(O)CC(=O)NCCn1ccc2ncnc(Nc3ccc(Oc4cccc(C(F)(F)F)c4)c(Cl)c3)c21
How it was run: as §1

[11] = compound: CC(C)C1=C2N=C(C=C(N2N=C1)NCC3=CC=CC=C3)NCCCCCCN
How it was run: as §1

[12] = compound: CC1=C(C(CC(=O)N1)C2=CC=C(C=C2)C(F)(F)F)C(=O)NC3=C(C=C4C(=C3)C=NN4)F
How it was run: as §1

[13] = compound: CC1=C(C2=C(C=C1)C(=O)C3=CC=CC=C3N2CCCN)C
How it was run: as §1

[14] = compound: CC1=C(C=C(C=C1)NC(=O)C2=CC(=CC=C2)C(C)(C)C#N)NC3=CC4=C(C=C3)N=CN(C4=O)C
How it was run: as §1

[15] = compound: CC1=C(C=C(C=C1)NC(=O)C2=CC(=CC=C2)N(C)C)NC(=O)C3=CC=C(C=C3)O
How it was run: as §1

[16] = compound: CC1=CC=C(C=C1)SC2=C3C=C(SC3=CN=C2)C(=O)N
How it was run: as §1

Row | Target | log2 fold change (erlotinib) | log2 fold change [1] | log2 fold change [2] | log2 fold change [3] | log2 fold change [4] | log2 fold change [5] | log2 fold change [6] | log2 fold change [7] | log2 fold change [8] | log2 fold change (IRAK-1-4 Inhibitor I) | log2 fold change (ibrutinib) | log2 fold change [9] | log2 fold change (ralimetinib) | log2 fold change [10] | log2 fold change [11] | log2 fold change [12] | log2 fold change [13] | log2 fold change [14] | log2 fold change [15] | log2 fold change [16]
1 | PPP1R21 (UniProt Q6ZMI0) | inactive: -0.001 | inactive: 0 | inactive: 0.01 | inactive: 0.088 | inactive: 0.017 | inactive: -0.049 | inactive: -0.105 | inactive: -0.067 | inactive: -0.06 | inactive: 0.055 | inactive: -0.015 | inactive: -0.012 | inactive: -0.023 | inactive: -0.074 | inactive: 0.011 | inactive: -0.048 | inactive: 0.013 | inactive: 0.1 | inactive: 0.011 | inactive: 0.023
2 | PRPF18 (UniProt Q99633) | inactive: -0.048 | inactive: 0.049 | inactive: 0.081 | inactive: 0.024 | inactive: -0.053 | inactive: 0.023 | inactive: -0.094 | inactive: 0.018 | inactive: 0.067 | inactive: -0.004 | inactive: 0.021 | inactive: -0.021 | inactive: -0.035 | inactive: 0.007 | inactive: 0.002 | inactive: -0.008 | inactive: -0.018 | inactive: 0.139 | inactive: -0.026 | inactive: -0.009
3 | PPIL3 (UniProt Q9H2H8) | inactive: 0.022 | inactive: 0.071 | inactive: 0 | inactive: -0.016 | inactive: -0.039 | inactive: -0.012 | inactive: -0.028 | inactive: -0.004 | inactive: 0.071 | inactive: 0.03 | inactive: 0.044 | inactive: 0.029 | inactive: -0.023 | inactive: -0.028 | inactive: 0.022 | inactive: 0.001 | inactive: 0.003 | inactive: 0.011 | inactive: 0.009 | inactive: 0.005
4 | PRKCA (UniProt P17252) | inactive: 0.031 | inactive: -0.086 | inactive: -0.019 | inactive: 0.108 | inactive: 0 | inactive: 0.044 | inactive: -0.088 | inactive: -0.037 | inactive: 0.044 | inactive: 0.005 | inactive: 0.015 | active: 0.366 | inactive: -0.012 | inactive: 0.069 | inactive: 0.032 | inactive: -0.015 | inactive: -0.094 | inactive: -0.002 | inactive: 0.033 | inactive: -0.045
5 | PRKACA (UniProt P17612) | inactive: -0.033 | inactive: -0.056 | inactive: 0.049 | inactive: 0.016 | inactive: -0.015 | inactive: -0.015 | inactive: 0.034 | inactive: 0.234 | inactive: 0.34 | inactive: 0.015 | inactive: 0.021 | active: 0.767 | inactive: 0.029 | inactive: -0.106 | inactive: -0.045 | inactive: 0.059 | inactive: -0.046 | inactive: -0.118 | inactive: -0.008 | inactive: -0.057
6 | PRPF6 (UniProt O94906) | inactive: 0.018 | inactive: 0.038 | inactive: -0.003 | inactive: -0.035 | inactive: 0.001 | inactive: 0.037 | inactive: -0.018 | inactive: -0.056 | inactive: -0.032 | inactive: -0.046 | inactive: 0 | inactive: 0 | inactive: 0.038 | inactive: 0.022 | inactive: 0.005 | inactive: -0.008 | inactive: 0.001 | inactive: -0.022 | inactive: 0.053 | inactive: 0.007
7 | PPP1CA (UniProt P62136) | inactive: 0.007 | inactive: 0.045 | inactive: 0.03 | inactive: -0.041 | inactive: -0.004 | inactive: 0.031 | inactive: 0 | inactive: -0.024 | inactive: 0.007 | inactive: -0.001 | inactive: 0 | inactive: 0.008 | inactive: 0.016 | inactive: -0.019 | inactive: -0.028 | inactive: -0.018 | inactive: 0.016 | inactive: 0.024 | inactive: -0.011 | inactive: 0.013
8 | PRKAR1A (UniProt P10644) | inactive: 0.019 | inactive: 0.038 | inactive: -0.027 | inactive: -0.012 | inactive: -0.024 | inactive: 0.003 | inactive: -0.043 | inactive: -0.074 | inactive: -0.077 | inactive: 0.002 | inactive: -0.017 | inactive: -0.011 | inactive: 0 | inactive: -0.013 | inactive: 0.015 | inactive: -0.045 | inactive: -0.02 | inactive: 0.034 | inactive: 0.006 | inactive: 0.041
9 | PPT2 isoform 3 (UniProt Q9UMR5) | inactive: 0.038 | inactive: -0.113 | inactive: 0.001 | inactive: 0.014 | inactive: -0.012 | inactive: -0.057 | inactive: 0.042 | inactive: 0.01 | inactive: 0.043 | inactive: 0.122 | inactive: 0.03 | inactive: 0.068 | inactive: -0.001 | inactive: -0.022 | inactive: -0.019 | inactive: -0.026 | inactive: 0.002 | inactive: -0.038 | inactive: -0.015 | inactive: -0.013
10 | PRMT5 (UniProt O14744) | inactive: 0.002 | inactive: 0 | inactive: 0.032 | inactive: 0.006 | inactive: 0.007 | inactive: 0.017 | inactive: 0.017 | inactive: 0.012 | inactive: 0.019 | inactive: 0.003 | inactive: 0.004 | inactive: -0.002 | inactive: -0.015 | inactive: 0.004 | inactive: -0.004 | inactive: -0.015 | inactive: -0.008 | inactive: 0.001 | inactive: -0.01 | inactive: 0.022
11 | PPP1R18 (UniProt Q6NYC8) | inactive: 0.012 | inactive: -0.012 | inactive: 0.006 | inactive: -0.025 | inactive: -0.019 | inactive: 0.006 | inactive: -0.045 | inactive: -0.025 | inactive: 0.033 | inactive: -0.002 | inactive: 0.018 | inactive: 0.018 | inactive: 0.008 | inactive: -0.001 | inactive: -0.023 | inactive: 0.019 | inactive: -0.001 | inactive: 0.019 | inactive: -0.007 | inactive: -0.031
12 | PPOX (UniProt P50336) | inactive: -0.044 | active: 0.532 | inactive: 0 | inactive: -0.015 | inactive: -0.04 | inactive: 0.025 | inactive: 0.014 | inactive: 0 | inactive: -0.041 | inactive: -0.016 | inactive: 0.067 | inactive: -0.008 | inactive: 0.001 | inactive: 0.091 | inactive: 0.301 | inactive: -0.022 | inactive: -0.138 | inactive: 0.105 | inactive: 0.006 | inactive: 0.012
13 | PPP2R1B isoform 2 (UniProt P30154) | inactive: 0.019 | inactive: -0.045 | inactive: -0.04 | inactive: -0.025 | inactive: 0.009 | inactive: -0.003 | inactive: -0.057 | inactive: -0.029 | inactive: 0.013 | inactive: -0.015 | inactive: 0.011 | inactive: 0.005 | inactive: 0.012 | inactive: -0.037 | inactive: 0.024 | inactive: 0.011 | inactive: 0.006 | inactive: 0.002 | inactive: 0.028 | inactive: -0.011
14 | PRKDC (UniProt P78527) | inactive: 0.021 | inactive: -0.064 | inactive: -0.029 | inactive: 0.135 | active: 0.927 | inactive: 0.037 | inactive: 0.068 | inactive: 0.122 | inactive: -0.041 | inactive: 0.02 | inactive: 0.096 | inactive: 0.318 | inactive: 0.033 | inactive: 0.01 | inactive: -0.014 | inactive: -0.021 | inactive: 0.031 | inactive: -0.057 | inactive: 0.038 | inactive: -0.01
15 | PPP6R3 isoform 5 (UniProt Q5H9R7) | inactive: -0.013 | inactive: -0.007 | inactive: 0.006 | inactive: 0.021 | inactive: 0.001 | inactive: 0.014 | inactive: 0 | inactive: -0.01 | inactive: -0.015 | inactive: 0.016 | inactive: 0.014 | inactive: -0.007 | inactive: -0.002 | inactive: -0.006 | inactive: -0.029 | inactive: -0.015 | inactive: -0.013 | inactive: 0.03 | inactive: 0.025 | inactive: -0.015
16 | PPME1 isoform 4 (UniProt Q9Y570) | inactive: -0.002 | inactive: -0.006 | inactive: 0.023 | inactive: -0.005 | inactive: -0.035 | inactive: 0.017 | inactive: 0.065 | inactive: 0.013 | inactive: 0.01 | inactive: -0.006 | inactive: 0.042 | inactive: 0.009 | inactive: 0.008 | inactive: 0.018 | inactive: -0.001 | inactive: -0.021 | inactive: -0.004 | inactive: -0.011 | inactive: -0.023 | inactive: 0.012

2 entries picked at random from the list so far, as already listed:
Row | Target | log2 fold change (erlotinib) | log2 fold change [1] | log2 fold change [2] | log2 fold change [3] | log2 fold change [4] | log2 fold change [5] | log2 fold change [6] | log2 fold change [7] | log2 fold change [8] | log2 fold change (IRAK-1-4 Inhibitor I) | log2 fold change (ibrutinib) | log2 fold change [9] | log2 fold change (ralimetinib) | log2 fold change [10] | log2 fold change [11] | log2 fold change [12] | log2 fold change [13] | log2 fold change [14] | log2 fold change [15] | log2 fold change [16]
2 | PRPF18 (UniProt Q99633) | inactive: -0.048 | inactive: 0.049 | inactive: 0.081 | inactive: 0.024 | inactive: -0.053 | inactive: 0.023 | inactive: -0.094 | inactive: 0.018 | inactive: 0.067 | inactive: -0.004 | inactive: 0.021 | inactive: -0.021 | inactive: -0.035 | inactive: 0.007 | inactive: 0.002 | inactive: -0.008 | inactive: -0.018 | inactive: 0.139 | inactive: -0.026 | inactive: -0.009
5 | PRKACA (UniProt P17612) | inactive: -0.033 | inactive: -0.056 | inactive: 0.049 | inactive: 0.016 | inactive: -0.015 | inactive: -0.015 | inactive: 0.034 | inactive: 0.234 | inactive: 0.34 | inactive: 0.015 | inactive: 0.021 | active: 0.767 | inactive: 0.029 | inactive: -0.106 | inactive: -0.045 | inactive: 0.059 | inactive: -0.046 | inactive: -0.118 | inactive: -0.008 | inactive: -0.057
